Results on 1 molecule are retold here after publication doi:10.1101/2023.01.10.523387.

Assay [1] deals with catalytically dead gp37 H47A with a C-terminal histidine tag (SIRV2). The assay is described as follows: pull-down.
The target in assay [2] is plasmid-borne gp37 with a histidine tag attached to the C-terminus (wild type) (SIRV2). The assay is described as follows: pull-down.

Results are given in words; binding and its absence hold for the method and conditions named. In cells and extracts the contact can be indirect. A result given as binding can be weak or reduced; the word gives no strength.

B1: host protein lysine methyltransferase SiL_1451 (endogenous) (enzyme, UniProt F0NBH8 1-161)
chain: MSYVPHVPYVPTPEKVVRRMLEIAKVSQDDIVYDLGCGDGRIIITAAKDFNVKKAVGVEINDERIREALANIEKNGVTGRASIVKGNFFEVDISEATVVTMFLLTNVNEMLKPKLEKELKPGTRVVSHEFEIRGWNPKEVIKVEDGNMNHTVYLYVIGEHK
As to B1, the binding result in assay [1] and in assay [2] was “binds” throughout.
